{"source": "paper PMC8882908", "about": "“Tricyclic Antidepressant Structure-Related Alterations in Calcium-Dependent Inhibition and Open-Channel Block of NMDA Receptors” (Frontiers in Pharmacology, 2022)", "key": {"[1]": {"system": "N-methyl-D-aspartate receptors (NMDARs)"}, "[2]": {"target": "N-methyl-D-aspartate receptors (NMDARs)", "conditions": "read-out: model-predicted IC50; [Ca2+] = 2.5 mM, Vm = −70 mV"}}, "note": "Several values for one entry are separate records, joined by “and”; a condition that tells them apart may be missing. Equal entries are not always repeated. Where two headings read alike, the source gives them in different places.", "data": [{"smiles": "CN(C)CCCN1c2ccccc2CCc2ccc(Cl)cc21", "note": "[CLO, clomipramine]", "values": [{"measurement": "open-channel block potency relative to ATL", "setting": "[1]; based on IC50 (0 mV)", "result": "about 5 folds"}, {"measurement": "e-fold change Vm (Vm shift giving an e-fold change of IC50)", "setting": "[1]; fit with Eq. 6", "result": "50 ± 5.5", "unit": "mV"}, {"measurement": "e-fold change [Ca2+] ([Ca2+] shift giving an e-fold change of IC50)", "setting": "[1]; fit with Eq. 6, Vm = −70 mV", "result": "5500 ± 1800 µM and 5500 µM"}, {"measurement": "IC50", "setting": "[1]; read-out: IC50(0 mV), value of IC50 at Vm = 0 mV from fit with Eq. 6 (Woodhull)", "result": "90 µM and 91 µM"}, {"measurement": "IC50", "setting": "[1]; read-out: IC50 of the inhibition of NMDAR currents, Vm = −30 mV, [Ca2+] = 0", "result": "47.3 ± 5.6", "unit": "µM"}, {"measurement": "IC50", "setting": "[1]; read-out: IC50 of the inhibition of NMDAR currents, Vm = −30 mV, [Ca2+] = 1 mM", "result": "44.2 ± 7.1", "unit": "µM"}, {"measurement": "IC50", "setting": "[1]; read-out: IC50 of the inhibition of NMDAR currents, Vm = −70 mV, [Ca2+] = 0", "result": "23.8 ± 4.4", "unit": "µM"}, {"measurement": "IC50", "setting": "[1]; read-out: IC50 of the inhibition of NMDAR currents, Vm = −70 mV, [Ca2+] = 1 mM", "result": "20 µM and 20.6 µM"}, {"measurement": "IC50", "setting": "[1]; read-out: IC50 of the inhibition of NMDAR currents, Vm = −70 mV, [Ca2+] = 4 mM", "result": "7.1 ± 1.4", "unit": "µM"}, {"measurement": "IC50", "setting": "[1]; read-out: IC50 of the inhibition of NMDAR currents, Vm = −100 mV, [Ca2+] = 0", "result": "9.88 ± 1.22", "unit": "µM"}, {"measurement": "IC50", "setting": "[1]; read-out: IC50 of the inhibition of NMDAR currents, Vm = −100 mV, [Ca2+] = 1 mM", "result": "11.8 ± 2.4", "unit": "µM"}, {"measurement": "IC50", "setting": "[2]", "result": 14, "unit": "µM"}]}]}
